# Measured values reported in PubChem BioAssay AID504467 (National Center for Advancing Translational Sciences (NCATS), 2011).
# Screen size: about 330,000 compounds; about 7,700 (2.3%) were called active. The shares of active, inactive and inconclusive entries below differ from those in the screen. The call rests on the fitted dose curve; in most records, active means well fitted inhibition curve with a large enough effect; inconclusive means small, poorly fitted or top-dose-only effect, or effect the other way; inactive means flat fitted curve, though single readings scatter. A potency beside an inconclusive call is a rough fit, not a confirmed value.
# Assay: qHTS screen for small molecules that inhibit ELG1-dependent DNA repair in human embryonic kidney (HEK293T) cells expressing luciferase-tagged ELG1; further: nearly all actives have a fitted effect of over 55% in size
# Settings: HEK293T ELG1-luciferase reporter, luminescence, 16 h, DNA damage induced by 5-fluorouridine; activity change, negative = inhibition: at 46.1 µM (top of the series)
# Procedure, shortened: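 In this reporter screen, reduction of luminescence relative to DMSO vehicle indicated activity. Compounds and 5-fluorouridine were added together to 2,000 cells per well, incubated for 16 hr at 37 °C, then developed with ONE-Glo.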
# On the % scale 0 is the no-effect control and ±100 the full control effect; potency means the concentration at half of the fitted maximal effect.
SMILES,Potency,"activity change, negative = inhibition"
Nc1c(N(Cc2ccco2)C(=O)c2cccc(F)c2)c(=O)[nH]c(=O)n1Cc1ccccc1,"inconclusive: 25.1 µM [activator, partial curve, poor fit]",
O=C(NCC(c1ccco1)N1CCN(c2ccccc2F)CC1)OCc1ccccc1 (stereo not given),"inconclusive: 18.4 µM [inhibitor, partial curve]",
Cc1ccnc(NC(=O)c2ccccc2NC(=O)C(C)(C)C)c1,"inconclusive: 20.6 µM [inhibitor, partial curve]",
CC(=O)Oc1ccc(/C=C2/Oc3ccccc3C2=O)cc1,"inconclusive: 25.9 µM [activator, single point]",
Oc1ccc(N=Nc2nccs2)c(O)c1,"inconclusive: 2.59 µM [inhibitor, partial curve, poor fit]",
COc1ccc(NC(=O)NC2(C(=O)N3CCCCC3)CCCCC2)cc1,,inactive: 4.49%
Cc1nc2c3ccccc3[nH]c(=O)n2n1,,inactive: 1.89%
CCOc1ccc(C(O)Cc2nc3ccccc3n2C)cc1 (stereo not given),"inconclusive: 10.3 µM [activator, partial curve]",
O=C(COC(=O)c1ccccc1Br)Nc1ccc(F)cc1,"inconclusive: 25.9 µM [activator, single point]",
O=C(CSc1ncc(-c2ccccc2)[nH]1)Nc1ccccc1,,inactive: 0.103%
COc1ccc(OCCC(=O)N2CCN(C)CC2)cc1,,inactive: 1.19%
CC(C)(C)c1ccc(C(=O)CCCSC2=C(C#N)C(c3ccco3)C3=C(CCCC3=O)N2)cc1 (stereo not given),"inconclusive: 23.1 µM [inhibitor, partial curve, poor fit]",
O=[N+]([O-])c1ccccc1CNCCCCCO,,inactive: 6.26%
Clc1ccc(OCc2nnc(-c3ccccc3Br)o2)cc1,"inconclusive: 23.1 µM [activator, single point]",
O=C(CSc1nc2ccccc2[nH]1)Nc1ccccc1F,,inactive: 0%
CC1SCC(=NOCc2ccccc2)CS1 (stereo not given),"inconclusive: 16.4 µM [activator, partial curve]",
COc1cccc(Nc2ncccc2C(=O)O)c1,"inconclusive: 29.1 µM [activator, single point]",
CC(=O)Nc1ccc(NC(=O)COC(=O)c2ccccc2C(=O)c2ccccc2)cc1,"inconclusive: 29.1 µM [inhibitor, single point]",
Cc1cc(C)c(C(=O)COC(=O)CCn2c(C)csc2=O)cc1C,"inconclusive: 20.6 µM [activator, partial curve]",
CC1CCN(S(=O)(=O)c2ccc(C(=O)Nc3nnc(-c4ccco4)o3)cc2)CC1,"inconclusive: 11.6 µM [inhibitor, partial curve]",

# Part of the list above, tab-delimited.
SMILES	Potency	activity change, negative = inhibition
O=C(COC(=O)c1ccccc1Br)Nc1ccc(F)cc1	inconclusive: 25.9 µM [activator, single point]	
O=C(CSc1nc2ccccc2[nH]1)Nc1ccccc1F		inactive: 0%
